Results from publication PMC5323046.
No constants are given. Whether binding was seen depends on the method and setting. For some assays here: In cells and extracts the contact can be indirect. Some results given as binding are weak or reduced against the parent protein; the word gives no strength. Where a sequence is shown, tags or fusion partners need not be part of it. One block for each binder: values may come before it.

Experiments:
[1] = biological target: T1, HA-tagged C9ORF72 (human) (UniProt Q96LT7); test: native gel or EMSA; HA-IP from 293T-REx cells inducibly expressing HA-tagged SMCR8, C9ORF72, ATG13 or ULK1, elution with HA peptide in PBS, Native PAGE (3-12% Bis-Tris), then immunoblot or in-gel digestion and mass spectrometry
T1 sequence: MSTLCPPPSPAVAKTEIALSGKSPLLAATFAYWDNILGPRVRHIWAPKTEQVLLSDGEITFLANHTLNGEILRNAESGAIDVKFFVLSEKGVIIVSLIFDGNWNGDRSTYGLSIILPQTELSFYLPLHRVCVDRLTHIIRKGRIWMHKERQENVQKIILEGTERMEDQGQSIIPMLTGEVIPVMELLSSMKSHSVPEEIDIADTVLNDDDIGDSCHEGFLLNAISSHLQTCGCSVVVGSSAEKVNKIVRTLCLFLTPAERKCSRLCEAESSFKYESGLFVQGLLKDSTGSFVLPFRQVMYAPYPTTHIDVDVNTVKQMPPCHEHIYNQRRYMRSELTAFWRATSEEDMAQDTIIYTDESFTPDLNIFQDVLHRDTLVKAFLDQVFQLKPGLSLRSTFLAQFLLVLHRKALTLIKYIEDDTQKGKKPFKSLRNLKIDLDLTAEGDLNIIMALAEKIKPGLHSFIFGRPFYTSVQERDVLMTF

HA-tagged ATG13 (human) [2] = biological target: T2, HA-tagged ATG13 (human) (UniProt O75143); test: co-IP; HA-IP (anti-HA-agarose, overnight, 4°C, MCLB buffer) from 293T-REx cells inducibly expressing HA-tagged bait, empty cells (MOCK) as control; SDS-PAGE and immunoblot of endogenous partners; cells untreated, with DMSO or 250 nM Torin1 for 2 hr, or starved with EBSS for 2 hr
T2 sequence: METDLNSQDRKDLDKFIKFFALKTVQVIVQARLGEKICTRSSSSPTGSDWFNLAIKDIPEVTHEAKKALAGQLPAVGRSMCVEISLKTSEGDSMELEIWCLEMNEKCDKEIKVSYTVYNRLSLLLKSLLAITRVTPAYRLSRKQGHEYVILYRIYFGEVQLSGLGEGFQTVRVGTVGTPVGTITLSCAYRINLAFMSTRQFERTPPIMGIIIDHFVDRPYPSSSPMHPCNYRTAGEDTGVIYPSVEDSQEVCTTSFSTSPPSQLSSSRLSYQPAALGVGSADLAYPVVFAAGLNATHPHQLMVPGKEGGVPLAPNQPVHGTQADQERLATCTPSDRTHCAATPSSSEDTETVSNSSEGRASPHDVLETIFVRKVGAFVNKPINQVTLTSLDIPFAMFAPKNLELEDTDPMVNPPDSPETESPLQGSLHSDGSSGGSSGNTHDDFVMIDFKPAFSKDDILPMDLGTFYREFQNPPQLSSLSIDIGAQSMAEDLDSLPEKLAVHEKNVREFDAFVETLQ

HA-tagged ATG13 (human) [3] = biological target: T2, HA-tagged ATG13 (human); test: native gel or EMSA; HA-IP from 293T-REx cells inducibly expressing HA-tagged SMCR8, C9ORF72, ATG13 or ULK1, elution with HA peptide in PBS, Native PAGE (3-12% Bis-Tris), then immunoblot or in-gel digestion and mass spectrometry
[4] = biological target: T3, HA-tagged full-length SMCR8 (human) (UniProt Q8TEV9); test: as above
T3 sequence: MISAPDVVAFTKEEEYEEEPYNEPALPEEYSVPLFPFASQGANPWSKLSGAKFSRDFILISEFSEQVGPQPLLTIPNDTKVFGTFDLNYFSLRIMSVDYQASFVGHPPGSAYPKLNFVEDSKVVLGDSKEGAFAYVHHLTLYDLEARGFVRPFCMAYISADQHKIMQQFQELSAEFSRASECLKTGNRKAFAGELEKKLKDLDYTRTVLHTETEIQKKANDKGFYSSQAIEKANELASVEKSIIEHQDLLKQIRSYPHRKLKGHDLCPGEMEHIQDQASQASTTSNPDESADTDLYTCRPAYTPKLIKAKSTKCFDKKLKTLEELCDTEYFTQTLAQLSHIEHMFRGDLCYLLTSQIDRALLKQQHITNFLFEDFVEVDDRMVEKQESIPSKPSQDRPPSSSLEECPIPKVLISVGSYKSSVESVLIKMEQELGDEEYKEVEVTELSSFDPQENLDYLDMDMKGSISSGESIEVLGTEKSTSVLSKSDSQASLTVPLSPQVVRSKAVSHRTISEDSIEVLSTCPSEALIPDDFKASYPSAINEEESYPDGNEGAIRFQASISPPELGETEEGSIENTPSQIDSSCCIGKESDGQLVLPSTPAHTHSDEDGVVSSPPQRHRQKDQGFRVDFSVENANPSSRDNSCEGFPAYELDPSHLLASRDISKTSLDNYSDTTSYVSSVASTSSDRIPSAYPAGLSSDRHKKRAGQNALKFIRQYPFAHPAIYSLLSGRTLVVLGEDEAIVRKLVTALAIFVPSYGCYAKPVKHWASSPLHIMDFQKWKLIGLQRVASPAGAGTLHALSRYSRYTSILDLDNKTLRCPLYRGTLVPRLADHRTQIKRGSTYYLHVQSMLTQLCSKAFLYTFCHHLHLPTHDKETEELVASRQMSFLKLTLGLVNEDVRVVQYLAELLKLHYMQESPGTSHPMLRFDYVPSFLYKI

[5] = biological target: T4, HA-tagged C9ORF72 (human), Q96LT7; test: as above; details: remark: other sources report otherwise
T4 chain: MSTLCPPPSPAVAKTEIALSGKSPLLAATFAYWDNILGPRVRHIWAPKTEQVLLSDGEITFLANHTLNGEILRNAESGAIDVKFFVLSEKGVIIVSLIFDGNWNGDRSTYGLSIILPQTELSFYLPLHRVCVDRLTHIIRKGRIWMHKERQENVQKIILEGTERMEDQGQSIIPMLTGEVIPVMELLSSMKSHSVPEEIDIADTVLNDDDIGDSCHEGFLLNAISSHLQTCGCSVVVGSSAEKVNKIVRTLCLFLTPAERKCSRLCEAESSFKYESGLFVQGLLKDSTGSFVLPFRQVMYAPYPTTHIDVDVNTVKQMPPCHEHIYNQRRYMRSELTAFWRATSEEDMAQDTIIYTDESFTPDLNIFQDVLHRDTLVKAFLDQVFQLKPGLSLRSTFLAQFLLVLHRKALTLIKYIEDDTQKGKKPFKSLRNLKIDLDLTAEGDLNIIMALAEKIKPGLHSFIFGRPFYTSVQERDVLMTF

binding [1]: binds
binding (HA-tagged ATG13 (human) [2]): binds
B1: endogenous SMCR8 (protein, UniProt Q8TEV9 1-937)
chain: MISAPDVVAFTKEEEYEEEPYNEPALPEEYSVPLFPFASQGANPWSKLSGAKFSRDFILISEFSEQVGPQPLLTIPNDTKVFGTFDLNYFSLRIMSVDYQASFVGHPPGSAYPKLNFVEDSKVVLGDSKEGAFAYVHHLTLYDLEARGFVRPFCMAYISADQHKIMQQFQELSAEFSRASECLKTGNRKAFAGELEKKLKDLDYTRTVLHTETEIQKKANDKGFYSSQAIEKANELASVEKSIIEHQDLLKQIRSYPHRKLKGHDLCPGEMEHIQDQASQASTTSNPDESADTDLYTCRPAYTPKLIKAKSTKCFDKKLKTLEELCDTEYFTQTLAQLSHIEHMFRGDLCYLLTSQIDRALLKQQHITNFLFEDFVEVDDRMVEKQESIPSKPSQDRPPSSSLEECPIPKVLISVGSYKSSVESVLIKMEQELGDEEYKEVEVTELSSFDPQENLDYLDMDMKGSISSGESIEVLGTEKSTSVLSKSDSQASLTVPLSPQVVRSKAVSHRTISEDSIEVLSTCPSEALIPDDFKASYPSAINEEESYPDGNEGAIRFQASISPPELGETEEGSIENTPSQIDSSCCIGKESDGQLVLPSTPAHTHSDEDGVVSSPPQRHRQKDQGFRVDFSVENANPSSRDNSCEGFPAYELDPSHLLASRDISKTSLDNYSDTTSYVSSVASTSSDRIPSAYPAGLSSDRHKKRAGQNALKFIRQYPFAHPAIYSLLSGRTLVVLGEDEAIVRKLVTALAIFVPSYGCYAKPVKHWASSPLHIMDFQKWKLIGLQRVASPAGAGTLHALSRYSRYTSILDLDNKTLRCPLYRGTLVPRLADHRTQIKRGSTYYLHVQSMLTQLCSKAFLYTFCHHLHLPTHDKETEELVASRQMSFLKLTLGLVNEDVRVVQYLAELLKLHYMQESPGTSHPMLRFDYVPSFLYKI

binding (HA-tagged ATG13 (human) [3]): binds
binding [4]: binds
B2: endogenous ATG101 (protein, UniProt Q9BSB4 1-218)
chain: MNCRSEVLEVSVEGRQVEEAMLAVLHTVLLHRSTGKFHYKKEGTYSIGTVGTQDVDCDFIDFTYVRVSSEELDRALRKVVGEFKDALRNSGGDGLGQMSLEFYQKKKSRWPFSDECIPWEVWTVKVHVVALATEQERQICREKVGEKLCEKIINIVEVMNRHEYLPKMPTQSEVDNVFDTGLRDVQPYLYKISFQITDALGTSVTTTMRRLIKDTLAL

binding [5]: binds
B3: endogenous WDR41, Q9HAD4 1-459 (protein)
chain: MLRWLIGGGREPQGLAEKSPLQTIGEEQTQNPYTELLVLKAHHDIVRFLVQLDDYRFASAGDDGIVVVWNAQTGEKLLELNGHTQKITAIITFPSLESCEEKNQLILTASADRTVIVWDGDTTRQVQRISCFQSTVKCLTVLQRLDVWLSGGNDLCVWNRKLDLLCKTSHLSDTGISALVEIPKNCVVAAVGKELIIFRLVAPTEGSLEWDILEVKRLLDHQDNILSLINVNDLSFVTGSHVGELIIWDALDWTMQAYERNFWDPSPQLDTQQEIKLCQKSNDISIHHFTCDEENVFAAVGRGLYVYSLQMKRVIACQKTAHDSNVLHVARLPNRQLISCSEDGSVRIWELREKQQLAAEPVPTGFFNMWGFGRVSKQASQPVKKQQENATSCSLELIGDLIGHSSSVEMFLYFEDHGLVTCSADHLIILWKNGERESGLRSLRLFQKLEENGDLYLAV
